Measurements reported in PubChem BioAssay AID504784 (Drosophila RNAi Screening Center, 2011).
In all, the deposit lists about 17,000 reagents; below is a random part of those with a known target gene and a result. 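Each column is one replicate's B-score; the combined score over replicates was not deposited, so single values may mislead.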 A plus sign joins genes that one reagent is predicted to hit.

- Aim: 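Fly genes whose silencing alters how much lipid cells keep in droplets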 (primary screen)
- Cells: Drosophila Kc167 embryonic cells
- Reagents: long dsRNA against Drosophila genes, about 250 ng dsRNA per well
- Time to read-out: 4 days
- Treatment: cells fed 400 µM oleic acid bound to BSA
- Measurement: 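Cells imaged and segmented; ratio of lipid droplet area to nuclear area, log-transformed, then normalised as a B-score over the screen; higher means more stored lipid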
- Direction: droplet/nuclear area B-score: higher = more stored lipid (overstorage)

gene | DRSC id | droplet/nuclear area B-score, replicate 1 | droplet/nuclear area B-score, replicate 2 | droplet/nuclear area B-score, replicate 3
CG33223 | DRSC17572 | -1.3 | 1.82 | –
Cyp6a9 (Cytochrome P450 6a9) | DRSC07385 | 0.116 | 0.0986 | –
ATPsynC (ATP synthase, subunit C) | DRSC15236 | -0.0183 | 13.1 | –
Zif (Zinc-finger protein) | DRSC12514 | 1.4 | 0.0895 | –
MESK2 + CG10494 | DRSC04259 | 0.192 | 0.596 | –
Cap-G (Chromosome associated protein G) | DRSC06652 | 2.02 | 0.944 | –
Cap-G (Chromosome associated protein G) | DRSC06653 | 0.446 | -1.73 | –
Cap-G (Chromosome associated protein G) | DRSC21805 | 0.728 | -0.709 | –
Scr (Sex combs reduced) | DRSC12604 | -3.49 | -4.44 | –
Scr (Sex combs reduced) | DRSC23141 | 2.52 | 0.0199 | –
CG17030 | DRSC08503 | -0.902 | 0.117 | –
Ak6 (Adenylate kinase 6) | DRSC07274 | -0.276 | 0.204 | –
Dnah3 (dynein, axonemal, heavy chain 3) | DRSC08130 | -0.371 | -2.19 | –
Dnah3 (dynein, axonemal, heavy chain 3) | DRSC08513 | 0.873 | 0.159 | –
CG40191 | DRSC21041 | -0.729 | -0.734 | –
CG10904 | DRSC04084 | -0.528 | 1.47 | –
CG31093 | DRSC15689 | 0.537 | -0.583 | –
pcm (pacman) | DRSC20361 | 0.842 | -1.15 | –
CG10339 | DRSC04065 | 0.574 | 0.599 | –
Rad51D (Rad51 recombinase D) | DRSC06840 | -0.42 | -0.814 | –
Iswi (Imitation SWI) | DRSC07446 | 0.461 | 0.818 | –
CG9040 | DRSC11053 | 0.919 | 1.49 | –
Lip1 (Lipase 1) | DRSC03364 | 0.457 | 1.92 | –
homer | DRSC03547 | 0.00863 | 0.142 | –

A run of entries taken from the entries so far:
gene | DRSC id | droplet/nuclear area B-score, replicate 1 | droplet/nuclear area B-score, replicate 2 | droplet/nuclear area B-score, replicate 3
CG10339 | DRSC04065 | 0.574 | 0.599 | –
Rad51D (Rad51 recombinase D) | DRSC06840 | -0.42 | -0.814 | –
Iswi (Imitation SWI) | DRSC07446 | 0.461 | 0.818 | –
CG9040 | DRSC11053 | 0.919 | 1.49 | –
Lip1 (Lipase 1) | DRSC03364 | 0.457 | 1.92 | –
homer | DRSC03547 | 0.00863 | 0.142 | –

The listing continues:
gene | DRSC id | droplet/nuclear area B-score, replicate 1 | droplet/nuclear area B-score, replicate 2 | droplet/nuclear area B-score, replicate 3
Smvt (Sodium-dependent multivitamin transporter) | DRSC15426 | -1.76 | -0.59 | –
Ir94h (Ionotropic receptor 94h) | DRSC15232 | -1.84 | -0.597 | –
Nost (Nostrin) | DRSC18037 | -1.73 | -3.28 | –
Nost (Nostrin) | DRSC18338 | -0.448 | -0.323 | –
CG15005 | DRSC08459 | 1.16 | -0.0583 | –
CG32413 | DRSC21591 | -0.42 | 0.31 | –
CG14718 | DRSC14941 | 0.72 | 2.83 | –
p38b (p38b MAP kinase) | DRSC03586 | -1.73 | -0.317 | –
LManI (Lysosomal alpha-mannosidase I) | DRSC02838 | -5.47 | 0.0074 | –
Gal (beta galactosidase) | DRSC03134 | 1.38 | -0.0371 | –
Chchd2 (Coiled-coil-helix-coiled-coil-helix domain containing 2) | DRSC19931 | 0.538 | 1.06 | -0.674
CG33125 | DRSC00145 | -0.174 | 0.238 | –
CG17350 | DRSC02611 | -0.791 | 3.38 | –
CG10939 | DRSC06019 | -0.234 | -0.611 | –
CG10939 | DRSC21734 | -1.23 | 0.795 | –
mthl10 (methuselah-like 10) | DRSC08504 | -1.85 | 3.21 | –
mthl10 (methuselah-like 10) | DRSC08505 | -1.82 | -0.277 | –
vilya | DRSC18588 | -0.255 | 0.977 | –
ihog (interference hedgehog) | DRSC03157 | -1.7 | 1.07 | –
Ada1-1 + Ada1-2 | DRSC01220 | 0.586 | -0.0679 | –
Ada1-1 + Ada1-2 | DRSC01222 | 1.4 | 0.0101 | –
Bet1 (Blocked early in transport 1) | DRSC10088 | 0.905 | 2.8 | –
Brd8 (Bromodomain containing 8) | DRSC14866 | -0.492 | – | –
CG14054 | DRSC17909 | -0.417 | 0.055 | –
CG4995 | DRSC02801 | 0.36 | 0.237 | –
mdy (midway) | DRSC01559 | -3.73 | -3.62 | –
mdy (midway) | DRSC02250 | -3.41 | 0.626 | –
maf-S | DRSC07348 | -0.59 | -1.91 | –
Mi-2 + Su(Tpl) | DRSC09640 | 0.452 | 0.15 | –
dsf (dissatisfaction) | DRSC03524 | -1.56 | -0.45 | –
sra (sarah) | DRSC17015 | 1.06 | 0.081 | –
gol (goliath) | DRSC04689 | -0.788 | -0.311 | –
